Our source for the binding values is paper PMC4375495 (The Journal of Biological Chemistry, 2015).

By UniProt entry, the sequences of proteins in these tests, tags left out.
UniProt P27986: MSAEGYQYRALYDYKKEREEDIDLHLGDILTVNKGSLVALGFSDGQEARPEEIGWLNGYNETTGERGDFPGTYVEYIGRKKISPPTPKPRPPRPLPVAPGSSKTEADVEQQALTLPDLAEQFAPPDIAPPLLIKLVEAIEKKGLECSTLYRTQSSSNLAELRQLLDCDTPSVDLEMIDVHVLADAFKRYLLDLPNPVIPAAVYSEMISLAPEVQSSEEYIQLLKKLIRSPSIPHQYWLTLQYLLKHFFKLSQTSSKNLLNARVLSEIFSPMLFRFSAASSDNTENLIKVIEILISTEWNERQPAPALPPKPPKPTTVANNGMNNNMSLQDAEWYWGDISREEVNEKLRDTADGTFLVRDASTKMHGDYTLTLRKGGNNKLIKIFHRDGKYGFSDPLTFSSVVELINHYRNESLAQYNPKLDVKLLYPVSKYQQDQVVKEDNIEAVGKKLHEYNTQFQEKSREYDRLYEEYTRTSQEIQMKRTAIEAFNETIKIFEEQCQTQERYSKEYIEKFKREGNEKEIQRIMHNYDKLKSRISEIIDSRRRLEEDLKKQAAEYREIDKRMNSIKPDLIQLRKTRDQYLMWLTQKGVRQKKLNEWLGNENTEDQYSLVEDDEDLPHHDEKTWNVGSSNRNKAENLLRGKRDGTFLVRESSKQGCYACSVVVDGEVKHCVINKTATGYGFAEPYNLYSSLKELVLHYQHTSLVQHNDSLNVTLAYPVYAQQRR

These are yes or no findings as the source states them, for the method shown. Some binding calls cover weakened binding; strength is not graded here.

The target in the experiment is T1, murine p110δ catalytic subunit (murine) (UniProt O35904).
T1 sequence: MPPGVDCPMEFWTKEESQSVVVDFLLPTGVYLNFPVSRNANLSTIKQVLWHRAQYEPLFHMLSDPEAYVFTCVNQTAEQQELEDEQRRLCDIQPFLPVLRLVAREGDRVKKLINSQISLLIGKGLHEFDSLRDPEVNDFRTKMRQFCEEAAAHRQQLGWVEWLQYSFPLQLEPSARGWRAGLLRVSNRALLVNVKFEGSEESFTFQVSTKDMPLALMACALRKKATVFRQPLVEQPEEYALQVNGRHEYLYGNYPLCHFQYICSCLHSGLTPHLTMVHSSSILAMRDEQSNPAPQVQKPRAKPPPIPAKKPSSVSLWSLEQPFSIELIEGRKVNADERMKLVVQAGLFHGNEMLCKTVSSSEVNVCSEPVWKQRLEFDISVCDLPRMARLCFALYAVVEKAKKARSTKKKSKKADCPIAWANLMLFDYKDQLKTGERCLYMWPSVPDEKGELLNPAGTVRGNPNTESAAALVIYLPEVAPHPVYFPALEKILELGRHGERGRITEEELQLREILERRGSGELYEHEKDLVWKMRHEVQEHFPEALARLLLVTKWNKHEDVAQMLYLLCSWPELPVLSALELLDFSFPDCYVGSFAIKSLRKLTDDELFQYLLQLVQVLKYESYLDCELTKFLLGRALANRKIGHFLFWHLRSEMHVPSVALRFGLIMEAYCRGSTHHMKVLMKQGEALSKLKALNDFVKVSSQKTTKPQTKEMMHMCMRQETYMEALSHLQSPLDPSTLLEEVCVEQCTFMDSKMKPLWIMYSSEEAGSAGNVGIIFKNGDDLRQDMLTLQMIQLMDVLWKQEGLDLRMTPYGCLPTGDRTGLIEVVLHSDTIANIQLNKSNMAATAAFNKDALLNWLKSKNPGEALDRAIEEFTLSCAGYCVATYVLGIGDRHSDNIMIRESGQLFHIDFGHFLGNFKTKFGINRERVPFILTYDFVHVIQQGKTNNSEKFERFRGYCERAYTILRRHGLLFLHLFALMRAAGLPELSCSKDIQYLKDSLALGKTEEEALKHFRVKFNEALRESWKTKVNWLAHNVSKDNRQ
Description: co-purification (Ni-NTA, SEC); p110 with N-terminal polyhistidine tag co-expressed with p85α in Sf21 cells; purified on a Ni-NTA FF column and buffer-exchanged on a KW2003 SEC column. For orientation: SEC sorts molecules by how far they enter the pores of the column.

Regarding “p85α regulatory subunit (from UniProt P27986 1-724)”, the binding result was “binds”.
